{"source": "paper PMC7819943", "about": "“Rice protein-binding microarrays: a tool to detect cis-acting elements near promoter regions in rice”", "note": "The other results are listed elsewhere or left out.", "data": [{"biological_target": "T1, OsSMF1 (Oryza sativa, UniProt Q6ZLB0 1-436)", "T1 sequence": "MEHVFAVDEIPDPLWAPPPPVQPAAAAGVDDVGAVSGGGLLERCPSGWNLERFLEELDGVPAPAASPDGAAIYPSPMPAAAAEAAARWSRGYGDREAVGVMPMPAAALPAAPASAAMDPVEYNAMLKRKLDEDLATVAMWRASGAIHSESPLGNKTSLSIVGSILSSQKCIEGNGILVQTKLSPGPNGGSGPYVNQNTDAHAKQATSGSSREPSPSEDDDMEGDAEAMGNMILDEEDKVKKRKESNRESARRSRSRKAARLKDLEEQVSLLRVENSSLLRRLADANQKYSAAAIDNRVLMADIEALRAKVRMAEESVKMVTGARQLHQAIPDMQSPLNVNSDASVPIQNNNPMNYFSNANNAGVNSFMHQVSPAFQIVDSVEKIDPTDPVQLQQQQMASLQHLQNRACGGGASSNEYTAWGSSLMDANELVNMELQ", "test": "protein-binding microarray (RPBM); PBS, 2% BSA, 51.3 ng/ul salmon testes DNA, 50 uM zinc acetate, 200 nM TF, 25 C, 1 h; high values mean tight binding", "settings": "protein: recombinant; tags: N-terminal polyhistidine and DsRed monomer fusion (pET32a); chain copies: 2; label: CyDye5-dUTP incorporated in the synthesized complementary strand; 3' TTTTT single-stranded linker to array surface; dsDNA, one strand shown", "procedure,_shortened": "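Binding signal is reported as fluorescence intensity per feature (arbitrary units) from an Axon 4000B scanner. Incubation used 200 nM of each Ni–NTA-purified, N-terminally polyhistidine- and DsRed-fused transcription factor from E. coli BL21-CodonPlus on a double-stranded custom Agilent array for 1 h at 25 °C, with 50 µM zinc acetate in the buffer, followed by washing.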", "values": [{"sequence": "ATGTTGAATGTGGTAAGATTGTTGAATGTTCTGCAGATGTCGGAGTCACCTAGTGCAG", "binding signal": "3260 fluorescence intensity (a.u.)"}, {"sequence": "ATAAAATTTTATGATATATAGATAATAATTTTACTTGCAACGGAGTCACCTAGTGCAG", "binding signal": "4550 fluorescence intensity (a.u.)"}, {"sequence": "ACGGCCCAGATCACGCCACTGACGTGTACGCCCTGCCGTGCGGAGTCACCTAGTGCAG", "binding signal": "23100 fluorescence intensity (a.u.)"}, {"sequence": "CTTCCTTTGCCTTGTCGGCGGCGATGGCGGCGTCGGCGTGCGGAGTCACCTAGTGCAG", "binding signal": "3810 fluorescence intensity (a.u.)"}, {"sequence": "TCGGATTCCATGGCGAATTGGTGACTCGGTGGCAAGGTCCCGGAGTCACCTAGTGCAG", "binding signal": "3670 fluorescence intensity (a.u.)"}, {"sequence": "CACTGCTTTGTTTGATTGTCAGTTGGTGTGCTTTCTTACCCGGAGTCACCTAGTGCAG", "binding signal": "10300 fluorescence intensity (a.u.)"}, {"sequence": "GCGAAATCTGATGATACTTAGGGCAGTCACAATGCGTCACCGGAGTCACCTAGTGCAG", "binding signal": "4270 fluorescence intensity (a.u.)"}, {"sequence": "ATTCAAAGGCATGCGAATGAGGTGGCATACCCTCAAATTTCGGAGTCACCTAGTGCAG", "binding signal": "5000 fluorescence intensity (a.u.)"}, {"sequence": "GTTATCTTCAGGATGTCGATCTGCACGTCATCTCTATCATCGGAGTCACCTAGTGCAG", "binding signal": "9890 fluorescence intensity (a.u.)"}, {"sequence": "CATACTCATTATTCCCGTCCACATGGTTTCATCTCGCCAGCGGAGTCACCTAGTGCAG", "binding signal": "3550 fluorescence intensity (a.u.)"}, {"sequence": "CCTGACCAAAGACGTCATCCCCTGAATTTCCAGCACGCCACGGAGTCACCTAGTGCAG", "binding signal": "5390 fluorescence intensity (a.u.)"}, {"sequence": "CGGCAGCCATGGAGAACGTCACCGGAGGAGGAGGAGGAGGCGGAGTCACCTAGTGCAG", "binding signal": "3610 fluorescence intensity (a.u.)"}, {"sequence": "CATTCCTCTCTTTCCCCTCATCCCTATAAATCCAACATTTCGGAGTCACCTAGTGCAG", "binding signal": "3440 fluorescence intensity (a.u.)"}, {"sequence": "AACGCAACGGCCGCGCCACGCCACGCCACGCGACGCGACCCGGAGTCACCTAGTGCAG", "binding signal": "8660 fluorescence intensity (a.u.)"}, {"sequence": "GCTGCCAATCGATGACCGTGACAAGTCCTTCATAATCCTACGGAGTCACCTAGTGCAG", "binding signal": "9160 fluorescence intensity (a.u.)"}, {"sequence": "GTATCTATCTGTCATCAGATTGACGTGGTACACAATTCTTCGGAGTCACCTAGTGCAG", "binding signal": "6090 fluorescence intensity (a.u.)"}, {"sequence": "GAAAACGTCGCCGTTAATACAACTAGCCACGCTAGCCTGCCGGAGTCACCTAGTGCAG", "binding signal": "3550 fluorescence intensity (a.u.)"}, {"sequence": "AACGGTTTATATGATGTGCTGCTGACTCACTCATTATTCTCGGAGTCACCTAGTGCAG", "binding signal": "21400 fluorescence intensity (a.u.)"}, {"sequence": "GCTAACTCAATGTTGTATTAAATGTATACACACGTAACATCGGAGTCACCTAGTGCAG", "binding signal": "3260 fluorescence intensity (a.u.)"}, {"sequence": "GTTGTTGTTGCAGTCCAGTCAGAGAGCAGAGGGCACTGCACGGAGTCACCTAGTGCAG", "binding signal": "3360 fluorescence intensity (a.u.)"}, {"sequence": "AGGTTGACACGACGACGACGCGAGTCACACGACGCGACAGCGGAGTCACCTAGTGCAG", "binding signal": "4440 fluorescence intensity (a.u.)"}, {"sequence": "GCTCTGAATATTCCTATGATTACAAATAGCAGGGTATCAACGGAGTCACCTAGTGCAG", "binding signal": "3390 fluorescence intensity (a.u.)"}, {"sequence": "AGCGACAGGGCGACCTCGGCACCGCACGCCATGGATTGACCGGAGTCACCTAGTGCAG", "binding signal": "3150 fluorescence intensity (a.u.)"}, {"sequence": "AGTTTGAAAACCCACCGCCACGTCGCCGCCGCCGCCGCCGCGGAGTCACCTAGTGCAG", "binding signal": "8870 fluorescence intensity (a.u.)"}, {"sequence": "TTCACACGCACCGTCTCACCTGACGTGGCGAGACAACACTCGGAGTCACCTAGTGCAG", "binding signal": "19100 fluorescence intensity (a.u.)"}, {"sequence": "TGGGCGGCACTCGCTGATGTCCACATCAGTGACCAATAAGCGGAGTCACCTAGTGCAG", "binding signal": "4110 fluorescence intensity (a.u.)"}, {"sequence": "GATGAGTAGACCAAAGCGACCGCGCTCATGACATCTACAGCGGAGTCACCTAGTGCAG", "binding signal": "3540 fluorescence intensity (a.u.)"}, {"sequence": "GTGAGCGTGAGCTTTTAGACCTTACCATTCTATGAGATATCGGAGTCACCTAGTGCAG", "binding signal": "20700 fluorescence intensity (a.u.)"}, {"sequence": "GAGGAGGCGCTGGATGACGCGATCGCGTTCGCGAGGCACCCGGAGTCACCTAGTGCAG", "binding signal": "5000 fluorescence intensity (a.u.)"}, {"sequence": "TTAAATTCTAGTACCCATTTCTCGGGTGAGGATCCTCTACCGGAGTCACCTAGTGCAG", "binding signal": "32800 fluorescence intensity (a.u.)"}, {"sequence": "GAGCTCCACCTCCTCGCGTGCCCACGCCATCCATGGCTTCCGGAGTCACCTAGTGCAG", "binding signal": "4500 fluorescence intensity (a.u.)"}, {"sequence": "GAATCCATCGACACGTTTCTTTCGTCAGAACAGTGTCCGTCGGAGTCACCTAGTGCAG", "binding signal": "3420 fluorescence intensity (a.u.)"}, {"sequence": "GTGGGACGTCTACCCAGCGCTGTGGTTGACTGGCGCGTGGCGGAGTCACCTAGTGCAG", "binding signal": "3230 fluorescence intensity (a.u.)"}, {"sequence": "GGTGTAAAGTTAGTTTTGCTGTGTCACATCGGGTATTAAACGGAGTCACCTAGTGCAG", "binding signal": "3460 fluorescence intensity (a.u.)"}, {"sequence": "GTGTCCGAGGGATGTGGTCCGCGCGGCCCTTGCCAACAAGCGGAGTCACCTAGTGCAG", "binding signal": "3160 fluorescence intensity (a.u.)"}, {"sequence": "CCCTCCGTCTCAAAATAATTTAACCAAGAACATGATCTGACGGAGTCACCTAGTGCAG", "binding signal": "18700 fluorescence intensity (a.u.)"}, {"sequence": "TACACCTGACTGTCGACCCTCACCATCTAGACACTTCCATCGGAGTCACCTAGTGCAG", "binding signal": "3590 fluorescence intensity (a.u.)"}, {"sequence": "CTGCGCTTCCGCCGACCACATCAGCTGCAGCACCAGCACCCGGAGTCACCTAGTGCAG", "binding signal": "4670 fluorescence intensity (a.u.)"}, {"sequence": "GCCGCTCCGCTCGCCGGCGAGCTGCCGGGGAACTCCGGCGCGGAGTCACCTAGTGCAG", "binding signal": "3390 fluorescence intensity (a.u.)"}, {"sequence": "CAAGAGATAAGGAGCAATCGATCCAGCGTGGCGGCATGCACGGAGTCACCTAGTGCAG", "binding signal": "3470 fluorescence intensity (a.u.)"}, {"sequence": "ACCAAACGACCTGGCCCTCCCTGCCCTCCTCTTCTTCTCCCGGAGTCACCTAGTGCAG", "binding signal": "3350 fluorescence intensity (a.u.)"}, {"sequence": "TGGGAGTTCGTTTGTGATGCCAGCTCTGCCATGCATATTTCGGAGTCACCTAGTGCAG", "binding signal": "3920 fluorescence intensity (a.u.)"}]}]}
